Test results reported in patent US20100099627A1 (YEDA RESEARCH AND DEVELOPMENT, published 2010).
Results are given in words; binding and its absence hold for the method and conditions named. For some assays here: In cells and extracts the contact can be indirect. Some results given as binding are weak or reduced against the parent protein; the word gives no strength.

The chains behind the UniProt entries cited, without tags or fusion partners. Residues count along the entry.
UniProt O95373: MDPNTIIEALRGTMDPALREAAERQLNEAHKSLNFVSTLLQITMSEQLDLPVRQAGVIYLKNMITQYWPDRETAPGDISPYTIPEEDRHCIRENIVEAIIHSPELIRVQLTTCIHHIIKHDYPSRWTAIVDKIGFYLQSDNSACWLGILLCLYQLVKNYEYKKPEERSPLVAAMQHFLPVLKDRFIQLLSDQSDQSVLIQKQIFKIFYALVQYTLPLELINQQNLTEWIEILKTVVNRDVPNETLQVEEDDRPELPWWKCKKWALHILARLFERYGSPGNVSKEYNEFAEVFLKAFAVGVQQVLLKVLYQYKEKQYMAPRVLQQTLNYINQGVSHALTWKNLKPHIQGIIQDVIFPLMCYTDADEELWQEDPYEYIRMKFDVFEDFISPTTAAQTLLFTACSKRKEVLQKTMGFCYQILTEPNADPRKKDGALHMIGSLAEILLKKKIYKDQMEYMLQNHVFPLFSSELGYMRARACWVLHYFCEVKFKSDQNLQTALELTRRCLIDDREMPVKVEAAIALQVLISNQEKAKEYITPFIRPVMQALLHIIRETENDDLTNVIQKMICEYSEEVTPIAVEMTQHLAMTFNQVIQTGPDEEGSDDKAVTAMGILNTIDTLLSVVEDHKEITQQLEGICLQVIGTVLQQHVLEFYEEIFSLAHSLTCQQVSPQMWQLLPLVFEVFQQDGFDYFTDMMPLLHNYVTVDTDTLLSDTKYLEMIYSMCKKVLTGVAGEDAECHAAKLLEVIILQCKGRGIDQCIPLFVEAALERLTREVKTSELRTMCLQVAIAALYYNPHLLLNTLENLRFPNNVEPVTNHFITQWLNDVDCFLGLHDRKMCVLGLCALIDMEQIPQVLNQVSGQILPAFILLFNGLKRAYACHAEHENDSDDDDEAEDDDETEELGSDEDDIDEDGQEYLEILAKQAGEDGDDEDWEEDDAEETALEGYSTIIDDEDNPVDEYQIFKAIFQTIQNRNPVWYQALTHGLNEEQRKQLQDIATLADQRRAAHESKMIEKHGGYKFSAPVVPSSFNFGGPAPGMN
UniProt P49790, residues 895-1475: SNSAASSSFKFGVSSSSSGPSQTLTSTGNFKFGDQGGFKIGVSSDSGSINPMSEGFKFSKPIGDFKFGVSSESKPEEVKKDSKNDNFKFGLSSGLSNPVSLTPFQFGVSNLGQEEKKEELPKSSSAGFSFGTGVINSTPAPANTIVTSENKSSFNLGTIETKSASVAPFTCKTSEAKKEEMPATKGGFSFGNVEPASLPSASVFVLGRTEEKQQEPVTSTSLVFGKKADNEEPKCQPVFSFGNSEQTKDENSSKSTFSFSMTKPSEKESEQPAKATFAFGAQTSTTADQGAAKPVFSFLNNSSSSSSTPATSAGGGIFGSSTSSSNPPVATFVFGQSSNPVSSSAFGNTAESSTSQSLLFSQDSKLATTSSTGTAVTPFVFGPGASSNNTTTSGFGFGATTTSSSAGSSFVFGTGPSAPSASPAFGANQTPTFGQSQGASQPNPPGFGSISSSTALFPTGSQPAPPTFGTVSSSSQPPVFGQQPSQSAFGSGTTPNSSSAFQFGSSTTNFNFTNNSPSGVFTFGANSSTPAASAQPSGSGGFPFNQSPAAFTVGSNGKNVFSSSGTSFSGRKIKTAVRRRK

Experiments:
[1] = target: MEK1 (UniProt Q02750); test: interaction in transfected cells (method not described; FIG. 3 cited)
[2] = target: APA-GFP-ERK2 (UniProt P63086); test: immunoprecipitated ERK2 constructs incubated with 0.5 µg recombinant His-Nup153c (FIG. 19C)
[3] = target: APA-GFP-ERK2 (UniProt P63086); test: immunoprecipitated ERK2 constructs incubated with 0.5 µg recombinant His-Nup153c, Western blot with anti His Ab
[4] = target: importin-7 (mammalian (e.g. human)) (UniProt O95373); test: co-immunoprecipitation with anti GFP Ab from HeLa cells, Western blot for importin-7
[5] = target: importin-7 (mammalian (e.g. human)) (UniProt O95373); test: co-immunoprecipitation with anti GFP Ab from HeLa cells, EGF 50 ng/ml 10 min (FIG. 19A)

Q: Which binding [1] does the source give for “GFP-ERK244-6A (from UniProt P63086 1-358) (enzyme)” here?
A: binds

Q: How did the binding [2] turn out when “recombinant His-Nup153c (from UniProt P49790 895-1475)” was run?
A: binds

Q: What about the binding [3] of the same molecule?
A: binds

B1: EPE-GFP-ERK2 (enzyme, UniProt P63086 1-358, looked up)
chain: MAAAAAAGPEMVRGQVFDVGPRYTNLSYIGEGAYGMVCSAYDNLNKVRVAIKKISPFEHQTYCQRTLREIKILLRFRHENIIGINDIIRAPTIEQMKDVYIVQDLMETDLYKLLKTQHLSNDHICYFLYQILRGLKYIHSANVLHRDLKPSNLLLNTTCDLKICDFGLARVADPDHDHTGFLTEYVATRWYRAPEIMLNSKGYTKSIDIWSVGCILAEMLSNRPIFPGKHYLDQLNHILGILGEPEQEDLNCIINLKARNYLLSLPHKNKVPWNRLFPNADSKALDLLDKMLTFNPHKRIEVEQALAHPYLEQYYDPSDEPIAEAPFKFDMELDDLPKEKLKELIFEETARFQPGYRS
notes: also called GFP-ERK244/6E; ERK-EE; not shown: GFP encoded by pEGFP C1 (Clontech)
Q: With B1 as the molecule, how does the binding [4] read?
A: binds

Q: What about the binding [5] of the same molecule?
A: binds
